Measured values as given in the supplement of paper PMC7877785.
± gives the uncertainty stated by the source. Many of these values have a large error.

Test: self-splicing fitness, log relative to wild type (ln ratio); higher = more splicing; Tetrahymena group I intron in knt gene, E. coli kanamycin selection, DiMSum; sequences stand for … in CUCUCU…GGAGGGAAAAGUUAUCAGGCAUGCACCUGGUAGCUAGUCUUUAAACCAAUAGAUUGCAUCGGUUUAAAAGGCAAGACCGUCAAAUUGCGGGAAAGGGGUCAACAGCCGUUCAGUACCAAGUCUCAGGGGAAACUUUGAGAUGGCCUUGCAAAGGGUAUGGUAAUAAGCUGACGGACAUGGUCCUAACCACGCAGCCAAGUCCUAAGUCAACAGAUCUUCUGUUGAUAUGGAUGCAGUUCACAGACUAAAUGUCGGUCGGGGAAGAUGUAUUCUUCUCAUAAGAUAUAGUCGGACCUCUCCUUAAUGGGAGCUAGCGGAUGAAGUGAUGCAACACUGGAGCCGCUGGGAACUAAUUUGUAUGCGAAAGUAUAUUGAUUAGUUUUGGAGUACUCGUGGUCG
How it was run: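 A randomised library covering all eight P1ex-region intron nucleotides was built with the intron in the knt kanamycin-resistance gene on pET-22b(+) and held in E. coli BL21(DE3). Cells were grown overnight at 37°C or 30°C on LB agar, with or without 25 μg/mL kanamycin, plus 100 μg/mL carbenicillin, 50 μM IPTG and 0.2% rhamnose, and pooled colonies were amplicon-sequenced on an Illumina HiSeq 2500. DiMSum fitness is the error-weighted combination of wild-type-normalised replicate fold changes, kanamycin versus none.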

| Sequence | self-splicing fitness (ln) (30 °C) | self-splicing fitness (ln) (37 °C) |
| --- | --- | --- |
| UAAGAGCAAUAUUACGGAGA | -1.92 ± 0.62 | -1.26 ± 0.57 |
| UUAGAGCAAUAUUACGCUAC | – | -3.3 ± 0.6 |
| GCGUAGCAAUAUUACGAUUC | -0.141 ± 0.098 | -0.0224 ± 0.11 |
| GAAUAGCAAUAUUACGAAGC | -3.17 ± 0.24 | -2.54 ± 0.22 |
| CAGAAGCAAUAUUACGCCCC | -2.56 ± 0.65 | -1.47 ± 1.2 |
| CUUCAGCAAUAUUACGCUCG | -2.42 ± 0.15 | -0.933 ± 0.26 |
| UUAGAGCAAUAUUACGACGC | – | -1.83 ± 0.56 |
| CGUCAGCAAUAUUACGCGGC | -2.47 ± 0.63 | -1.33 ± 1.2 |
| GUGUAGCAAUAUUACGCUAC | – | -1.88 ± 1.2 |
| CAUUAGCAAUAUUACGCCAU | -4.05 ± 1 | -2.04 ± 0.65 |
| ACCUAGCAAUAUUACGCCAG | – | -1.92 ± 0.52 |
| CAGCAGCAAUAUUACGUAUA | -2.42 ± 0.18 | -2.81 ± 0.29 |
| CCGUAGCAAUAUUACGAGCA | -1.93 ± 0.53 | – |
| CACUAGCAAUAUUACGAAAU | -4.02 ± 0.52 | -1.38 ± 0.4 |
| CAACAGCAAUAUUACGGGAU | -3.7 ± 0.15 | -2.08 ± 0.15 |
| UCACAGCAAUAUUACGUCUA | -1.25 ± 0.077 | -0.331 ± 0.075 |
| CGAGAGCAAUAUUACGAUCG | – | -1.66 ± 0.53 |
| UCAGAGCAAUAUUACGCGCC | – | -1.6 ± 0.67 |
| GCUUAGCAAUAUUACGGUAG | – | -3.53 ± 0.52 |
| GACUAGCAAUAUUACGCUCC | – | -2.16 ± 1.1 |

Whole records, quoted from the list:
UCACAGCAAUAUUACGUCUA as listed: self-splicing fitness (ln) (30 °C): -1.25 ± 0.077; self-splicing fitness (ln) (37 °C): -0.331 ± 0.075
GAAUAGCAAUAUUACGAAGC as listed: self-splicing fitness (ln) (30 °C): -3.17 ± 0.24; self-splicing fitness (ln) (37 °C): -2.54 ± 0.22

(continued)

| Sequence | self-splicing fitness (ln) (30 °C) | self-splicing fitness (ln) (37 °C) |
| --- | --- | --- |
| GCUGAGCAAUAUUACGCACG | -1.96 ± 1.2 | -0.797 ± 0.52 |
| CCUAAGCAAUAUUACGAACC | – | 0.406 ± 1.2 |
| CAUAAGCAAUAUUACGCCGC | -2.82 ± 0.38 | -1.59 ± 0.47 |
| GAUGAGCAAUAUUACGGGCU | – | -2.62 ± 0.64 |
| UGCUAGCAAUAUUACGGAGC | -0.54 ± 0.76 | – |
| UUGAAGCAAUAUUACGUCCC | -2.36 ± 1.2 | -1.51 ± 0.84 |
| CUUCAGCAAUAUUACGGCCA | -3.53 ± 0.76 | -2.05 ± 1.1 |
| CACUAGCAAUAUUACGUCGA | -1.58 ± 0.13 | -1.48 ± 0.1 |
| UGCCAGCAAUAUUACGCGAA | -1.33 ± 0.11 | 0.357 ± 0.11 |
| UGAGAGCAAUAUUACGGCUC | – | -3.05 ± 0.52 |
| CGAGAGCAAUAUUACGUGCU | – | -3.7 ± 0.51 |
| GAGUAGCAAUAUUACGUAAA | -2.93 ± 0.71 | – |
| AUGGAGCAAUAUUACGCGGC | – | -0.19 ± 0.92 |
| GGACAGCAAUAUUACGCCAC | – | -1.74 ± 0.6 |
| AGAGAGCAAUAUUACGACCG | – | -0.915 ± 0.56 |
| UGUUAGCAAUAUUACGCCCC | -1.37 ± 0.73 | – |
| UGAAAGCAAUAUUACGUAAC | -5.05 ± 0.51 | – |
| UCGGAGCAAUAUUACGGAUG | -3.59 ± 0.54 | -2.04 ± 0.6 |
| AUCUAGCAAUAUUACGAGCC | – | -2.02 ± 0.5 |
| GUUUAGCAAUAUUACGUCAG | -3.08 ± 0.76 | -1.78 ± 1.2 |

| Sequence | self-splicing fitness (ln) (30 °C) | self-splicing fitness (ln) (37 °C) |
| --- | --- | --- |
| UAUAAGCAAUAUUACGUCUC | -4.42 ± 0.73 | – |
| CGAGAGCAAUAUUACGUUGU | -4.63 ± 0.59 | – |
| CUCGAGCAAUAUUACGUAGC | -4.8 ± 0.72 | -2.19 ± 0.27 |
| UCGGAGCAAUAUUACGGUCA | – | -2.56 ± 0.76 |
| CGGAAGCAAUAUUACGCCGA | -1.97 ± 0.82 | -1.52 ± 0.56 |
| UCUUAGCAAUAUUACGUACC | -1.26 ± 0.48 | -1.53 ± 0.41 |
| UCCGAGCAAUAUUACGGCGC | -4.48 ± 0.59 | – |
| UAUAAGCAAUAUUACGGCCC | -1.81 ± 0.78 | – |
| UGGAAGCAAUAUUACGUGUC | -5.63 ± 0.51 | – |
| GCGUAGCAAUAUUACGAACC | -0.706 ± 0.56 | – |
| GAUGAGCAAUAUUACGCAAA | -2.55 ± 0.51 | -2.07 ± 0.56 |
| UAAGAGCAAUAUUACGAGAC | -2.64 ± 0.56 | – |
| CUAGAGCAAUAUUACGUGGA | -3.21 ± 0.19 | -1.68 ± 0.18 |
| GGGAAGCAAUAUUACGAGAA | -2.16 ± 0.48 | -1.78 ± 0.36 |
| UAUGAGCAAUAUUACGAAAG | – | -2.43 ± 1.1 |
| GUGUAGCAAUAUUACGAGAG | -4.62 ± 1 | – |
| GCUCAGCAAUAUUACGUGUG | -1.26 ± 0.063 | -0.824 ± 0.074 |
| CUCGAGCAAUAUUACGCAUU | – | -3.97 ± 0.51 |
